Binding signal data for 42 sequences are collected here from paper PMC7819943, “Rice protein-binding microarrays: a tool to detect cis-acting elements near promoter regions in rice”.

This is one part of the list.

This test deals with T1, OsSMF1 (Oryza sativa, UniProt Q6ZLB0 1-436).
T1 sequence: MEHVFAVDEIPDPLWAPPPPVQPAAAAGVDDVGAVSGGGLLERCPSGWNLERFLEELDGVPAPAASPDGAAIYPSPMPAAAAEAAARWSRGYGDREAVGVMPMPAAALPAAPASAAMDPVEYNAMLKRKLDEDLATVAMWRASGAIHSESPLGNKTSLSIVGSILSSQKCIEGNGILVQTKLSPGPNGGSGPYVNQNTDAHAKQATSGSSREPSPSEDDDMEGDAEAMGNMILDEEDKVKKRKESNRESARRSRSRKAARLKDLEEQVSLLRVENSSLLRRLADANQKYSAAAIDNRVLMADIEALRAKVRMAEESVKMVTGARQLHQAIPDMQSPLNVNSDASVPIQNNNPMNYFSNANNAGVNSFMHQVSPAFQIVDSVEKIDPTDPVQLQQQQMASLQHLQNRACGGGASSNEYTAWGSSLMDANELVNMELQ
As to the kind of experiment: protein-binding microarray (RPBM); PBS, 2% BSA, 51.3 ng/ul salmon testes DNA, 50 uM zinc acetate, 200 nM TF, 25 C, 1 h; high values mean tight binding. The conditions noted are these: protein: recombinant; tags: N-terminal polyhistidine and DsRed monomer fusion (pET32a); chain copies: 2; label: CyDye5-dUTP incorporated in the synthesized complementary strand; 3' TTTTT single-stranded linker to array surface; dsDNA, one strand shown. A digest of the protocol: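 Binding signal here means per-feature fluorescence intensity in arbitrary units. The values were read on an Axon 4000B scanner after a custom Agilent array, double-stranded by primer extension with Cy5-dUTP, was incubated with 200 nM protein at 25 °C for 1 h in PBS with 2% BSA, salmon testes DNA and 50 µM zinc acetate, then washed. The proteins were transcription factors with an N-terminal polyhistidine tag and DsRed, expressed in E. coli BL21-CodonPlus and purified on Ni–NTA.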
For the sequence “GGGCCGCAACACCGTGTCACATCCGATCTCTCCCCTTCCTCGGAGTCACCTAGTGCAG”, the binding signal was 3590 fluorescence intensity (a.u.).
Regarding “TCCTCCTCCTCGTCGTCGTCGGCGGCGGCGGATGGTGGATCGGAGTCACCTAGTGCAG”, the binding signal was 3160 fluorescence intensity (a.u.).
Consider “TCGCCGACGGGGACCTTGTGGGCGACGTGGAAGGAGTCGGCGGAGTCACCTAGTGCAG”, for which the binding signal was 3340 fluorescence intensity (a.u.).
Regarding “GCTCCTGTGGATGTAACGCCGCAGCTCTCTTGTGTACCACCGGAGTCACCTAGTGCAG”, the binding signal is 3310 fluorescence intensity (a.u.).
For “TGCGCCGGTCGGAACGGGATCCACACGATATGACGTCAGGCGGAGTCACCTAGTGCAG” the value was 12200 fluorescence intensity (a.u.); for “TTGGGAACTAATGGAGGGAGTATGACGCAATGTCAAGTCACGGAGTCACCTAGTGCAG”, 5490 fluorescence intensity (a.u.).
Regarding “AATATCTACCTCCCATGCGGCAGTGTGTCTCCGAGTGCTGCGGAGTCACCTAGTGCAG”, the binding signal was 3230 fluorescence intensity (a.u.).
For “GCTCTCCCGCCACTGCTCATGGTGACGACGCCATCGAGGTCGGAGTCACCTAGTGCAG” the value was 3240 fluorescence intensity (a.u.).
On to “GCGTGCGGTGCGGAGCGCGGCCACGTCCGCCGCCGCCTCGCGGAGTCACCTAGTGCAG”, for which the binding signal is 9620 fluorescence intensity (a.u.).
For “TATGTTAATATGATATGACCTTATGACTCACCAGTAGTCCCGGAGTCACCTAGTGCAG” the value was 10800 fluorescence intensity (a.u.); for “TATGATGGAGGACGAATATGGGCTGTCATAGGCCTTCTTTCGGAGTCACCTAGTGCAG”, 3640 fluorescence intensity (a.u.); for “ATGAATGATCGGAGATGAGAGCAAGGGTGACGTCAGCCATCGGAGTCACCTAGTGCAG”, 15200 fluorescence intensity (a.u.).
For “CGTTCCATTCCCGGCGTCGACCTCCGGCCGCTGTCACCGACGGAGTCACCTAGTGCAG” the value was 3880 fluorescence intensity (a.u.); for “GCGCCGCCCGGTTCACACGGCCACACACGCACCGCCCTCTCGGAGTCACCTAGTGCAG”, 4140 fluorescence intensity (a.u.); for “AGCCTGGTGCCGTGATGTGCTGACGATGCTCCATGACGACCGGAGTCACCTAGTGCAG”, 6540 fluorescence intensity (a.u.).
Take “GTTTTGAGATACATCATCATCAATCCGTAGTTTTGTAGTACGGAGTCACCTAGTGCAG”: the binding signal was 3420 fluorescence intensity (a.u.).
For “AGGCGCCTCACTCGAACCTTAATTTCGTGTTCTAGTTAGACGGAGTCACCTAGTGCAG”, the binding signal is 34200 fluorescence intensity (a.u.).
For the sequence “GGTTAAGTTGGGAGGAATTCTCCAAGTCACCTTGTGCCTGCGGAGTCACCTAGTGCAG”, the binding signal is 5440 fluorescence intensity (a.u.).
The result for “GGGAAGAAAAGTTCGGTCAGATCCCACGTGTACGCTTAGCCGGAGTCACCTAGTGCAG” reads 11800 fluorescence intensity (a.u.); that for “AGTCCAGCGAAGGGTGTGCGGCCGTGGAAAGTCTACTTGTCGGAGTCACCTAGTGCAG”, 3220 fluorescence intensity (a.u.); that for “TTGGATGTGATGTGATGTAATGGAAAGTTAAAAGTTTGGACGGAGTCACCTAGTGCAG”, 4080 fluorescence intensity (a.u.).
Take “TGGCCACGTCCTCTTCTCCCCGAGCGGGTCTTATTCCCAGCGGAGTCACCTAGTGCAG”: the binding signal was 6380 fluorescence intensity (a.u.).
The result for “TGGCGCAAGATTATTCACACCGCACGCCAGGCAGGGCGCACGGAGTCACCTAGTGCAG” reads 3140 fluorescence intensity (a.u.); that for “AGTGTAGTGGTGGTAGCCAGCCAAGAAACCATTTCTTTCCCGGAGTCACCTAGTGCAG”, 34000 fluorescence intensity (a.u.).
The result for “GGAAGAGCTCTGTGCATTCTCTTATCAGTTTACTGTTGCACGGAGTCACCTAGTGCAG” reads 3270 fluorescence intensity (a.u.); that for “TGTTTGCAGTCAGAACATGGATGACTCTGCTGCTCAAACTCGGAGTCACCTAGTGCAG”, 3600 fluorescence intensity (a.u.).
Regarding “GGAATCCACATAAATGACACTTCCTCTAAATTTTAATATACGGAGTCACCTAGTGCAG”, the binding signal was 24300 fluorescence intensity (a.u.).
As to “GAGTATCATATGTGTCAGATCCTAGGTATCACATGTACCGCGGAGTCACCTAGTGCAG”, the binding signal is 4100 fluorescence intensity (a.u.).
Regarding “CAAGCCTGCCAGATAATCGTGCCCACGCTGCCGGCGAATGCGGAGTCACCTAGTGCAG”, the binding signal is 3370 fluorescence intensity (a.u.).
For “GTGCGCACCCGGCACCCGCGTCCAACGCTATATATTACGCCGGAGTCACCTAGTGCAG” the value was 3200 fluorescence intensity (a.u.); for “CAAATCTGGGCATCCGCGTCAGCGCTGCGCCTGCGCCGCTCGGAGTCACCTAGTGCAG”, 10400 fluorescence intensity (a.u.); for “TTTGAGATTTGTGATGGAACACGTGTCACCTGTGGTCGCGCGGAGTCACCTAGTGCAG”, 4790 fluorescence intensity (a.u.).
The result for “ATATCCTATCAGATGAACGTCAGTGACAGTGACTGTACTCCGGAGTCACCTAGTGCAG” reads 7840 fluorescence intensity (a.u.).
The result for “GGAGGATAAGGTAATGACGTGGTTATCCGGTCGAGCAAACCGGAGTCACCTAGTGCAG” reads 5280 fluorescence intensity (a.u.); that for “ATCGCCAACGTGTCGCGGCTTTCCGCCACCAAATCGATACCGGAGTCACCTAGTGCAG”, 33000 fluorescence intensity (a.u.); that for “AGCCCAACTCGTGATCCAGTCATCCATAGTCGACTCGACTCGGAGTCACCTAGTGCAG”, 4870 fluorescence intensity (a.u.).
Regarding “GCAGCCGGATGCGAGCCGTCGTCGTCGCCCGTCGTGGCCACGGAGTCACCTAGTGCAG”, the binding signal is 3280 fluorescence intensity (a.u.).
In the case of “TATTACCAATGAAAATTTTATCTTATAGTCAGTTTAATCTCGGAGTCACCTAGTGCAG”, the binding signal was 4970 fluorescence intensity (a.u.).
In the case of “TTTTAAGTGTGGTTTATATCTTATATATTTGTATAAAATTCGGAGTCACCTAGTGCAG”, the binding signal is 11400 fluorescence intensity (a.u.).
With “ACCATGGTGCCCGGGCACCATGGTGCCCCATATGAGTGTCCGGAGTCACCTAGTGCAG”, the binding signal was 36800 fluorescence intensity (a.u.).
As to “GGGGTGTGTGTGGGTTGGATCAACTACCCCAGCTACTGCCCGGAGTCACCTAGTGCAG”, the binding signal is 3490 fluorescence intensity (a.u.).
“CCAAACATACCCATTATCACATATCGCAGCCGCCCATGTTCGGAGTCACCTAGTGCAG”: the binding signal is 35300 fluorescence intensity (a.u.).
